Measurements taken from patent publication US20100166659A1, “USE OF CYANINE DYES FOR THE DIAGNOSIS OF PROLIFERATIVE DISEASES” (priority 2005, published 2010).
Some entries share one result that the patent states for a list of compounds.

Test system: tumors
Assay: Tumor detection by optical imaging (DOT) with cyanine dye contrast agent
Assay type: in vivo
Conditions: for Size (diameter) of smallest detectable tumors: at low concentration (very small amounts administered)

SMILES | Time after injection at which imaging of tumors is still possible | Size (diameter) of smallest detectable tumors
CC1(C)C(/C=C/C=C(/C=C/C=C2/N(CCCCS(=O)(=O)O)c3ccc(S(=O)(=O)[O-])cc3C2(C)C)CCS(=O)(=O)O)=[N+](CCCCS(=O)(=O)O)c2ccc(S(=O)(=O)O)cc21 [Compound 5-29] | up to 48 h | ≥ 3 mm
CC1(C)C(/C=C/C2=C(c3ccccc3)C(=C/C=C3/N(CCCCS(=O)(=O)O)c4ccc(S(=O)(=O)[O-])cc4C3(C)C)/CCC2)=[N+](CCCCS(=O)(=O)O)c2ccc(S(=O)(=O)O)cc21 [Compound 5-41] | up to 48 h | ≥ 3 mm
